Laboratory results taken from the supplement of paper PMC10849652.
This is one part of the list.

The chains behind the UniProt entries cited, without tags or fusion partners. Where a name states a change or a piece, a line headed by the entry shows the natural chain unless it says otherwise.
UniProt Q9UHY1: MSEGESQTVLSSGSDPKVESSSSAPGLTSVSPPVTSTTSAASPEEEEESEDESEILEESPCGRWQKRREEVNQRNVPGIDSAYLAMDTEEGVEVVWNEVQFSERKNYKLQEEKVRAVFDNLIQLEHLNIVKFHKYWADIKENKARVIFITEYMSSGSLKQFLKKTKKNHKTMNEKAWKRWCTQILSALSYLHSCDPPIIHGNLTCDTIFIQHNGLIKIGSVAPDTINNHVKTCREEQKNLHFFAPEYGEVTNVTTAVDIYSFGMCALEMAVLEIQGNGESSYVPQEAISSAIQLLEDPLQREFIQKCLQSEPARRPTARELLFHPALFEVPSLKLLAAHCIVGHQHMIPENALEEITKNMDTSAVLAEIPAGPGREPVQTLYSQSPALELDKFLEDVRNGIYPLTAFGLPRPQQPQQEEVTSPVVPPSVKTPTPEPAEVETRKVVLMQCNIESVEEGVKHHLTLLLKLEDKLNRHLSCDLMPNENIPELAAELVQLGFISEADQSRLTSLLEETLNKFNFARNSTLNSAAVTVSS
UniProt Q8WTT2: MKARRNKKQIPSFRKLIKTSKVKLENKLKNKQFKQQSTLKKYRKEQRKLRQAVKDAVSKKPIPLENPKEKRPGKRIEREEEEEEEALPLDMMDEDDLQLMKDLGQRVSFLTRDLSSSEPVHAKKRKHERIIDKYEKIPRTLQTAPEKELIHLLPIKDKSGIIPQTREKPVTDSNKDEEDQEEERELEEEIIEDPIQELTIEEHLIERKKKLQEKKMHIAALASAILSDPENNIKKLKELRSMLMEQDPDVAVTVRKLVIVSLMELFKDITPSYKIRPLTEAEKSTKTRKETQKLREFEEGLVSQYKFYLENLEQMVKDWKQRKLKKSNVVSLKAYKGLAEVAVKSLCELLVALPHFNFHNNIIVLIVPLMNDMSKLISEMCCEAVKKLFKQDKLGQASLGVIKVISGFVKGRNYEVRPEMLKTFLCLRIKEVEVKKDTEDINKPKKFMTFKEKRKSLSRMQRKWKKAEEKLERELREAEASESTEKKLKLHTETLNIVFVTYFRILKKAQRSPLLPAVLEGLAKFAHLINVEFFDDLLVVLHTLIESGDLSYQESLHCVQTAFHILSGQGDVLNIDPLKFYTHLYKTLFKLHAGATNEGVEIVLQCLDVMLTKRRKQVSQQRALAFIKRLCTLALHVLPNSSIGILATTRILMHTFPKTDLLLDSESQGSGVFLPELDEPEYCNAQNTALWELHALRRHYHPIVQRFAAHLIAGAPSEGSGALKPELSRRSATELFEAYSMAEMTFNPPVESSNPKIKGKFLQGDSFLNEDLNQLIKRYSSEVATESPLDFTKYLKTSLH
UniProt Q13232: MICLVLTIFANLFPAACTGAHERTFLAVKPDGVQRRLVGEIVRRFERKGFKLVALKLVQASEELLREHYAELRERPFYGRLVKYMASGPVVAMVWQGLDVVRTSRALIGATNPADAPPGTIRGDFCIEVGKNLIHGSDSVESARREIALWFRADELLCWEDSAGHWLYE
UniProt Q9Y3C1: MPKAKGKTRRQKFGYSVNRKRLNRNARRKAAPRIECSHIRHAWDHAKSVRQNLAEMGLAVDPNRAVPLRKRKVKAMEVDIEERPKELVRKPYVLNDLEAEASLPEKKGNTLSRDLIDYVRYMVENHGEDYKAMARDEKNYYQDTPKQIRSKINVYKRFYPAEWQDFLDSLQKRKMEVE
UniProt Q9HBL8: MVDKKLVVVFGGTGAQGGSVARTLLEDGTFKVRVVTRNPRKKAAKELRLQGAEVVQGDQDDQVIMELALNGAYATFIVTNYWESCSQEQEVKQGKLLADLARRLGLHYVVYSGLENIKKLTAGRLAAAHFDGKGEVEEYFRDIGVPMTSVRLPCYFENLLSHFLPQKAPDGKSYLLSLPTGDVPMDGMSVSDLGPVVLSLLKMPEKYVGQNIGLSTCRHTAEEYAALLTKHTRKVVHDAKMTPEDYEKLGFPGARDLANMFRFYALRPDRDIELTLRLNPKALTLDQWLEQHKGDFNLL
UniProt Q9BQG2: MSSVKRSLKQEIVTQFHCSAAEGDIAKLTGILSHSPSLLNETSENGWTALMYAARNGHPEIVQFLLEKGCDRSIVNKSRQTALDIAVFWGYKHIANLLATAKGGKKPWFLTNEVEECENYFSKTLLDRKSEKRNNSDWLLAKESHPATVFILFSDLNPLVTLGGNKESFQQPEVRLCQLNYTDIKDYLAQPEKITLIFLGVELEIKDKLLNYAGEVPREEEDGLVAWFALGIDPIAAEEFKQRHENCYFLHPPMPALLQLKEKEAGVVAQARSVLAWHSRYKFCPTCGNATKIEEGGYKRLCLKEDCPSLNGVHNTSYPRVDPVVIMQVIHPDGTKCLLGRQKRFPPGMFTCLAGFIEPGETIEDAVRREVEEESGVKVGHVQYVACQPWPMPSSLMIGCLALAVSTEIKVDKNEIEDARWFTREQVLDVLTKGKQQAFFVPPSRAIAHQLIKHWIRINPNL
UniProt Q86WQ0: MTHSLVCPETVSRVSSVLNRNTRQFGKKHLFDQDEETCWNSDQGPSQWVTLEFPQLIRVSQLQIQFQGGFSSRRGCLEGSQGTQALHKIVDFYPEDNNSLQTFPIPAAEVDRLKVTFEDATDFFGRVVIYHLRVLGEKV
UniProt Q9BV86: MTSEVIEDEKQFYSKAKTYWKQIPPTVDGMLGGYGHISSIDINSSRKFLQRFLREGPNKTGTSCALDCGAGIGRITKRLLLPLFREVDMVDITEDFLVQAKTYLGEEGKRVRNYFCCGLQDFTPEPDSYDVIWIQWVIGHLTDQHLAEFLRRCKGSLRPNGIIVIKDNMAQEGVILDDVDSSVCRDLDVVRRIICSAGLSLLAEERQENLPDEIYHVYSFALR
UniProt Q9UHK0: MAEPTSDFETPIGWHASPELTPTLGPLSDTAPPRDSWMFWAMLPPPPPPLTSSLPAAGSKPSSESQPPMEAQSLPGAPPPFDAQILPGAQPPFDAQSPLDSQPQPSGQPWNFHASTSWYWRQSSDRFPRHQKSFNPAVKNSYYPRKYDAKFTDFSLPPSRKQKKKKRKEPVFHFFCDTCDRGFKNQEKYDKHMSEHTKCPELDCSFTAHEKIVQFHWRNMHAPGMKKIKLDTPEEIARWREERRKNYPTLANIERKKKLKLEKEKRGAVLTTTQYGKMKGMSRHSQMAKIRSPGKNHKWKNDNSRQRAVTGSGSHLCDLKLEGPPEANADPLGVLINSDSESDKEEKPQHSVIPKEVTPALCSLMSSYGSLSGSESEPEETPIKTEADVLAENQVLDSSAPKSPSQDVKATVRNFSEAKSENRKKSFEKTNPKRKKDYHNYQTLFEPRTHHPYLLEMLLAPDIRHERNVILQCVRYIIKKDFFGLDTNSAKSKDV
UniProt Q14978: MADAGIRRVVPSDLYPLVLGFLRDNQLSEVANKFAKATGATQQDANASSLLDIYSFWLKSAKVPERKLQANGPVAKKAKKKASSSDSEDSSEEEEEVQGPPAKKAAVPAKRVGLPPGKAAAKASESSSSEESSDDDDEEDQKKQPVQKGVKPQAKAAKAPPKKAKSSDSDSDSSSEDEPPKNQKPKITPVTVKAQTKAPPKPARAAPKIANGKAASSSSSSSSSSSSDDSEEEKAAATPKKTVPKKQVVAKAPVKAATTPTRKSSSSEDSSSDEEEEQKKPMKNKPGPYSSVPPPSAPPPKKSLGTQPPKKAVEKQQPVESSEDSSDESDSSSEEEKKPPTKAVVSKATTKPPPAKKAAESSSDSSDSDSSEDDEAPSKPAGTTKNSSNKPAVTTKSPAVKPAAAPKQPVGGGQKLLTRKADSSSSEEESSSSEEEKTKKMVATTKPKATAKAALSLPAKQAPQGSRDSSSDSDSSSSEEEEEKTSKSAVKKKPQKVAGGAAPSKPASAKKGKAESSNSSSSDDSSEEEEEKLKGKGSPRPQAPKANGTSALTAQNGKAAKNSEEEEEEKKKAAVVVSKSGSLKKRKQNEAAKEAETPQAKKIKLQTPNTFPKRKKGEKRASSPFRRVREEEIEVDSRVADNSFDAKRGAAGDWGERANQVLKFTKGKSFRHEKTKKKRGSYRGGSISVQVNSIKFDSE
UniProt P46531, whole entry, looked up: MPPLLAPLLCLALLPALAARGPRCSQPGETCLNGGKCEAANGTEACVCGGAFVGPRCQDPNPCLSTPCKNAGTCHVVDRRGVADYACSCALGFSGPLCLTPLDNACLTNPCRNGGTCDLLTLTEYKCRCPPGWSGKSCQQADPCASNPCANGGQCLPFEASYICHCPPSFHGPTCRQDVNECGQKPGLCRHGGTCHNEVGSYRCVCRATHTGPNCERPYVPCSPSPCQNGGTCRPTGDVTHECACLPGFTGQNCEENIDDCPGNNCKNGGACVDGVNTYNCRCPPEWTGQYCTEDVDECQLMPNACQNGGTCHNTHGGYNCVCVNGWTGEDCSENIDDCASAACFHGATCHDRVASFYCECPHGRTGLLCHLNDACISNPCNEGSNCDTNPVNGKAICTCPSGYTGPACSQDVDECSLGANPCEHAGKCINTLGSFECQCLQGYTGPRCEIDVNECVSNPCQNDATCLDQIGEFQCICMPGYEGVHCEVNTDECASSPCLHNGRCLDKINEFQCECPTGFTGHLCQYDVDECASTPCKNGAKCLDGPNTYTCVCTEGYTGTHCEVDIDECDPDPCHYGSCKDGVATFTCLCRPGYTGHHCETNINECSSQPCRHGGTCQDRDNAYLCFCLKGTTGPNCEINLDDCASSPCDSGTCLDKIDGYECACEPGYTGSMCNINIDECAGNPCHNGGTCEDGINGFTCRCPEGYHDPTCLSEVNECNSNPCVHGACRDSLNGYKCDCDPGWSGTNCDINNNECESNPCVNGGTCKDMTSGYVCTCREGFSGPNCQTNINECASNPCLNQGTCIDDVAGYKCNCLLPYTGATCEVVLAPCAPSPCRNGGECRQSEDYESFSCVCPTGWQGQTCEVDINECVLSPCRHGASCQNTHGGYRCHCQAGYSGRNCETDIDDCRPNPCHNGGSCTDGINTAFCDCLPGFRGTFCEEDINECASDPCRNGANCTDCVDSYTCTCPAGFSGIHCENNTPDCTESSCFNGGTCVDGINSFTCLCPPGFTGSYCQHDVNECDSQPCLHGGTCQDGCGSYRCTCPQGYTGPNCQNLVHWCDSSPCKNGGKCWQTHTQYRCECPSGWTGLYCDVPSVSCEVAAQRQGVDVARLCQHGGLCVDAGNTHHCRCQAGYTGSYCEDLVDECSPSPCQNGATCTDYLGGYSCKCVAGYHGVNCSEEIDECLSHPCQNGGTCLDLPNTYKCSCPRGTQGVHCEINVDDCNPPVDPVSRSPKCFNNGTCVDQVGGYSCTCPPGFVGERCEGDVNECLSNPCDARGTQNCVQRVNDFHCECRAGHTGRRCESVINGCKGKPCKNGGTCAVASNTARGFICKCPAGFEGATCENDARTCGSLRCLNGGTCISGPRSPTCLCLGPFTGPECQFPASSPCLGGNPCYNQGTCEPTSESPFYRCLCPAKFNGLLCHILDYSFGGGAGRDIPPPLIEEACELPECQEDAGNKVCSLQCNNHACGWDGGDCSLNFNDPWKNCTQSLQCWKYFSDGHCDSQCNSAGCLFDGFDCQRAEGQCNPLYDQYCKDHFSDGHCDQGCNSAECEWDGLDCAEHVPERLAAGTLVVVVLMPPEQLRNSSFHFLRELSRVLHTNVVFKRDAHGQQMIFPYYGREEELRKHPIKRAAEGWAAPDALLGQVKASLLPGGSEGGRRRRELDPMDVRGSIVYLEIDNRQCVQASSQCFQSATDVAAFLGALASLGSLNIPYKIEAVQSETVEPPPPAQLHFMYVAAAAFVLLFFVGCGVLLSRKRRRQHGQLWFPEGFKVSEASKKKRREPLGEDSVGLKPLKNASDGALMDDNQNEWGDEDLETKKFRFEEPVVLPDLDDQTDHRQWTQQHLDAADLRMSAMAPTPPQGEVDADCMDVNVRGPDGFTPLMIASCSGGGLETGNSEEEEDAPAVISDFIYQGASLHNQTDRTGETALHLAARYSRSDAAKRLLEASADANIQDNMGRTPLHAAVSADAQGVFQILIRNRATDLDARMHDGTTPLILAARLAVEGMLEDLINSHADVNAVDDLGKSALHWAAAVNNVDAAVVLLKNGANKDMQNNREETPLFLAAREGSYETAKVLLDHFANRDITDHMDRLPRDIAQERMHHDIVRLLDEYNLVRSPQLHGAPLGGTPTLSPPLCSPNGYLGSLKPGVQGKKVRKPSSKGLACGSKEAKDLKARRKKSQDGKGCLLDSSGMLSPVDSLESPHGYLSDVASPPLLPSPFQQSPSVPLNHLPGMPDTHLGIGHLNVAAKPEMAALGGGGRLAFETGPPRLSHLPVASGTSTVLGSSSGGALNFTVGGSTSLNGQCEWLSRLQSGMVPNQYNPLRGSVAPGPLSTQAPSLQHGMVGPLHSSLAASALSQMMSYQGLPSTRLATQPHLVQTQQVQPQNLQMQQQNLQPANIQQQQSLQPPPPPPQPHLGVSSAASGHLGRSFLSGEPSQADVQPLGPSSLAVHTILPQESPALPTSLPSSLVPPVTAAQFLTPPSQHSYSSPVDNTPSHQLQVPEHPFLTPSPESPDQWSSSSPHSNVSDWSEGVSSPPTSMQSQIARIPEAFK

Legend:
Assay in all cases: log2 fold change, soluble protein after heating vs DMSO (PISA); higher = thermal stabilisation; K562 lysate, 10 uM; active = over 0.2 and 3.5 SD of the protein, either way, in both replicates (recomputed)
[1] = compound: C1=CC=C(C=C1)[C@H](COC2=CC3=C(C=C2)NC(=O)N3)NC(=O)C4=CC=CN(C4=O)CC5=CC(=C(C=C5)F)F
Method in brief: (§1)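 To prepare the extract, K562 pellets were dounce-homogenised in PBS pH 7.4 with 1 mM MgCl2, giving crude material at 1 mg/mL protein. This was treated with 10 μM compound for 30 min, then heated in aliquots for 3 min over 48°C-58°C before pooling and addition of NP-40 to 0.5% at 4°C. Centrifugation at 21,000xg for 90 min left soluble protein in the supernatant, which TMTpro 16plex LC-MS/MS quantified with equalised channel sums. Results are log-two fold changes in thermal stability compared with solvent controls, from duplicates.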

[2] = compound: CC1=C(SC2=C1C(=N[C@H](C3=NN=C(N32)C)CC(=O)N)C4=CC=C(C=C4)Cl)C
Method in brief: as §1

[3] = compound: CC1=C2C(=CC=C1)N=C(N(C2=O)C3=CC=CC=C3C)CN4C=NC5=C(N=CN=C54)N
Method in brief: as §1

[4] = compound: Cc1sc2c(c1C)C(c1ccc(Cl)cc1)=N[C@@H](CC(=O)OC(C)(C)C)c1nnc(C)n1-2
Method in brief: as §1

[5] = compound: c1ccc([C@@H]2C[C@H]2NC2CCNCC2)cc1
Method in brief: as §1

Measured: log2 fold change

NRDC isoform 2 (UniProt O43847)
inactive: [1] 0.002 | [2] 0.005 | [3] 0.001 | [4] 0.001 | [5] 0.035

NUF2 (UniProt Q9BZD4)
inactive: [1] -0.03 | [2] 0.008 | [3] 0.018 | [4] 0.007 | [5] 0.016

NSF (UniProt P46459)
inactive: [1] -0.032 | [2] 0.005 | [3] 0.005 | [4] 0.016 | [5] 0.027

NRBP1 (UniProt Q9UHY1)
inactive: [1] 0.025 | [2] 0.022 | [3] 0.001 | [4] -0.006 | [5] -0.011

NOC3L (UniProt Q8WTT2)
inactive: [1] 0.113 | [2] -0.027 | [3] -0.07 | [4] -0.023 | [5] 0.001

NME3 (UniProt Q13232)
inactive: [1] -0.069 | [2] 0.041 | [3] -0.003 | [4] 0.071 | [5] -0.006

Retrieved one by one from the list above, 2 records:
NRBP1 (UniProt Q9UHY1)
inactive: [1] 0.025 | [2] 0.022 | [3] 0.001 | [4] -0.006 | [5] -0.011

NSF (UniProt P46459)
inactive: [1] -0.032 | [2] 0.005 | [3] 0.005 | [4] 0.016 | [5] 0.027

(cont.)

NOP16 (UniProt Q9Y3C1)
inactive: [1] 0.009 | [2] -0.035 | [3] 0 | [4] -0.039 | [5] 0.013

NMRAL1 (UniProt Q9HBL8)
inactive: [1] -0.09 | [2] 0.049 | [3] 0.009 | [4] -0.071 | [5] -0.027

NUDT12 (UniProt Q9BQG2)
inactive: [1] -0.037 | [2] 0.018 | [3] -0.047 | [4] -0.051 | [5] 0.012

NOP56 (UniProt O00567)
inactive: [1] 0.005 | [2] 0.007 | [3] -0.014 | [4] 0.081 | [5] 0.062

NUDT9 (UniProt Q9BW91)
inactive: [1] 0.041 | [2] -0.007 | [3] -0.02 | [4] -0.001 | [5] -0.023

NPM1 (UniProt P06748)
inactive: [1] 0.041 | [2] -0.036 | [3] -0.012 | [4] 0.023 | [5] 0.011

NOC4L (UniProt Q9BVI4)
inactive: [1] -0.031 | [2] 0.02 | [3] 0.044 | [4] 0.081 | [5] 0.083

NT5C2 (UniProt P49902)
inactive: [1] -0.015 | [2] 0.016 | [3] -0.027 | [4] 0.042 | [5] 0.006

NUMBL (UniProt Q9Y6R0)
inactive: [1] -0.047 | [2] 0.038 | [3] 0.039 | [4] -0.096 | [5] -0.012

NOP53 (UniProt Q9NZM5)
inactive: [1] 0.01 | [2] 0.059 | [3] 0.033 | [4] 0.044 | [5] 0.187

NUDT5 (UniProt Q9UKK9)
inactive: [1] 0.053 | [2] -0.126 | [3] -0.012 | [4] -0.097 | [5] -0.158

NMNAT1 (UniProt Q9HAN9)
inactive: [1] 0.083 | [2] -0.011 | [3] -0.067 | [4] -0.057 | [5] 0.028

NR2C2AP isoform 2 (UniProt Q86WQ0)
inactive: [1] -0.099 | [2] 0.044 | [3] 0.085 | [4] 0.042 | [5] 0.022

NSUN2 (UniProt Q08J23)
inactive: [1] -0.016 | [2] 0.011 | [3] -0.009 | [4] 0.021 | [5] 0.019

NOL9 (UniProt Q5SY16)
inactive: [1] -0.024 | [2] 0.046 | [3] -0.037 | [4] 0.033 | [5] 0.048

NOSTRIN (UniProt Q8IVI9)
inactive: [1] -0.061 | [2] 0.039 | [3] 0.017 | [4] -0.092 | [5] 0.017

NSDHL (UniProt Q15738)
inactive: [1] -0.085 | [2] -0.041 | [3] -0.005 | [4] -0.034 | [5] -0.025

NTHL1 (UniProt P78549)
inactive: [1] -0.134 | [2] 0.127 | [3] -0.452 | [4] -0.038 | [5] 0.158

NOL11 (UniProt Q9H8H0)
inactive: [1] 0.042 | [2] 0.001 | [3] 0.027 | [4] 0.007 | [5] -0.029

NTMT1 (UniProt Q9BV86)
inactive: [1] -0.01 | [2] -0.036 | [3] -0.019 | [4] 0.02 | [5] 0.098

NPRL3 (UniProt Q12980)
inactive: [3] 0.08 | [5] -0.064

NUFIP1 (UniProt Q9UHK0)
inactive: [1] 0.032 | [2] -0.017 | [4] 0.042 | [5] -0.026

NOLC1 isoform 3 (UniProt Q14978)
inactive: [1] -0.082 | [2] 0.042 | [4] -0.015 | [5] -0.157

NOMO1 (UniProt Q15155)
inactive: [1] 0.064 | [2] 0.099 | [4] 0.198 | [5] 0.176

NOTCH1 (UniProt P46531)
inactive: [3] 0.097 | [4] -0.12 | [5] -0.139

NTRK1 (UniProt P04629)
inactive: [3] -0.06 | [4] 0.259 | [5] -0.329
